Assay results from the supplement of paper PMC10849652.
The list shows a part of the results.

Chains of the proteins cited; added tags and fusions are not shown. Lines headed by an entry give the natural chain unless they say otherwise; changes in a name come on top.
UniProt Q9Y262, whole entry, looked up: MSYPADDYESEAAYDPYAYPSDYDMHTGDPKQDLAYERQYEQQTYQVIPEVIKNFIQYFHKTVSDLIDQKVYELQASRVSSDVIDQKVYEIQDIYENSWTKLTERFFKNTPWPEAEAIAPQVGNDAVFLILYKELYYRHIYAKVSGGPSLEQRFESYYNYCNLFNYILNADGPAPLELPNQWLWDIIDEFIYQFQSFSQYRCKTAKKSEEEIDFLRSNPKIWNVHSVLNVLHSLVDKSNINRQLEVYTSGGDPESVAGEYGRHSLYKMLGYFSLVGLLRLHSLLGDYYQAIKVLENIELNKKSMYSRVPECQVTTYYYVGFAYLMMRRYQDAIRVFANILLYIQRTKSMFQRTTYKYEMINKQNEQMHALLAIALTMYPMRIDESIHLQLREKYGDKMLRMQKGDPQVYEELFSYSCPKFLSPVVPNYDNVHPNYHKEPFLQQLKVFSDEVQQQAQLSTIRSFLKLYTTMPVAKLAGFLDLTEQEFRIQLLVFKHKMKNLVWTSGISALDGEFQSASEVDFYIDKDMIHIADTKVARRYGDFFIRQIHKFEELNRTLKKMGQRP
UniProt Q9BV81: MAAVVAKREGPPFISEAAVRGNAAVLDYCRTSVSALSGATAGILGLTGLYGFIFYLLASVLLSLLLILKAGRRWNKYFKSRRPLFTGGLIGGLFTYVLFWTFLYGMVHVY
UniProt Q9NPA8: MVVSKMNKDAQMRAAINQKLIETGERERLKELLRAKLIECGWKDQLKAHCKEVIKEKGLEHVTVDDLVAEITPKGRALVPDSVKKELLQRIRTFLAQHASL
UniProt Q99613, whole entry, looked up: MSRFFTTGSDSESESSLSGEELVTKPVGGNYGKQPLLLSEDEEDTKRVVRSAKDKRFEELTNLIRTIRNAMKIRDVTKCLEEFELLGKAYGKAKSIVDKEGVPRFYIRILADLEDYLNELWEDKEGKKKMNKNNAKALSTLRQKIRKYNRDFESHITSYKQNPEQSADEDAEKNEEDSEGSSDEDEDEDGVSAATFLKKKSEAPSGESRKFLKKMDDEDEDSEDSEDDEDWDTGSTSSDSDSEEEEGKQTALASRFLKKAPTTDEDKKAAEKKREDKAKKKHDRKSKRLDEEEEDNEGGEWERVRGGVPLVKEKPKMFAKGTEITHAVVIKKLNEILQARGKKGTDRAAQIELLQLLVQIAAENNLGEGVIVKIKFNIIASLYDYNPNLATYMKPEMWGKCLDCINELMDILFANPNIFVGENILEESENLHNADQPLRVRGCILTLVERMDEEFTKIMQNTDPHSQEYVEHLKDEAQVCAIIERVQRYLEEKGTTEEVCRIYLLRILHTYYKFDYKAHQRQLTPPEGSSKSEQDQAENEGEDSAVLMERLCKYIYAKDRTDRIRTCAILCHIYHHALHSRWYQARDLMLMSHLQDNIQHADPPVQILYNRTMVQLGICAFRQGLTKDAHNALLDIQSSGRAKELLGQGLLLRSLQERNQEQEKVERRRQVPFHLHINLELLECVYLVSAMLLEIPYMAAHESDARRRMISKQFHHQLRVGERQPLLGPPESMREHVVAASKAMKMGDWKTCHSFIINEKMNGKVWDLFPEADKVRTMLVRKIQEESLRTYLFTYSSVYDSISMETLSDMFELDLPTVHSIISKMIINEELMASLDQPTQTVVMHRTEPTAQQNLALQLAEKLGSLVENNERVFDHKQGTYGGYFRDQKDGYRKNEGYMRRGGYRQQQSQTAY
UniProt Q8N766: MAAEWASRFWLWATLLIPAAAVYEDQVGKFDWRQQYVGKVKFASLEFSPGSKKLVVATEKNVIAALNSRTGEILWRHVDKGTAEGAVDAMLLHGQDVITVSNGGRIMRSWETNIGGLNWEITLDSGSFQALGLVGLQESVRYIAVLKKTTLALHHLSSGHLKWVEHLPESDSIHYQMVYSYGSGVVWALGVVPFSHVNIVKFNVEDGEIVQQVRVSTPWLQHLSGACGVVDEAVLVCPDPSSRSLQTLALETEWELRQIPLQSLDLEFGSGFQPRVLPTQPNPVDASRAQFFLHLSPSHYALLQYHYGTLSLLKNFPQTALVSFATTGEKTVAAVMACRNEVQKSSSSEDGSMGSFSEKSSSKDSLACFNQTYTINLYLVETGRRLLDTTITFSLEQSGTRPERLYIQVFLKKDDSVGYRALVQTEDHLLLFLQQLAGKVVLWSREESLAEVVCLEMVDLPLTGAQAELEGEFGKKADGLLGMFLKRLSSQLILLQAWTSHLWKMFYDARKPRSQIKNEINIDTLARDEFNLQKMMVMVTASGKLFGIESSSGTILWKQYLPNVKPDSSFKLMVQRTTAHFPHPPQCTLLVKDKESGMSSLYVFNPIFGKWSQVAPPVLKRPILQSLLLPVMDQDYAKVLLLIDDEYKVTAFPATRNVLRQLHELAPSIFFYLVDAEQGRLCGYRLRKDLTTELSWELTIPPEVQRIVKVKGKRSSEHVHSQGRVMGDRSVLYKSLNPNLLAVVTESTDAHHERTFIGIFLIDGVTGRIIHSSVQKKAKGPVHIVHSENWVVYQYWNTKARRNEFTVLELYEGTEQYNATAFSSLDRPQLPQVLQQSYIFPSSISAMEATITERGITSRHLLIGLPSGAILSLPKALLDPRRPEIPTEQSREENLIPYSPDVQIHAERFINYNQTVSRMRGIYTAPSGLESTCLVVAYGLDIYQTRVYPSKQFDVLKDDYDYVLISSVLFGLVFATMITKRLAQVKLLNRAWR
UniProt Q9GZT9: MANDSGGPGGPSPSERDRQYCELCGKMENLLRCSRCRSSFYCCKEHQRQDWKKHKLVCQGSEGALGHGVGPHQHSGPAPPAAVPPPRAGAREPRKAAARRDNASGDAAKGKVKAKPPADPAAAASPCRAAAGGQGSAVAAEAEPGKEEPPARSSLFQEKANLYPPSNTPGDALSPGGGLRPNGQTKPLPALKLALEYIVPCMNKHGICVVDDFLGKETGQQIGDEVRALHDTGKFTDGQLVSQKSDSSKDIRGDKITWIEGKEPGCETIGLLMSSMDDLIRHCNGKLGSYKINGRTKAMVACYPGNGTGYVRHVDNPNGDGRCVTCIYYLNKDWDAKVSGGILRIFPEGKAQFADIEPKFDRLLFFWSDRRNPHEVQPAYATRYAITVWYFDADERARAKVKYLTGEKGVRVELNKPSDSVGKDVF
UniProt Q09472, whole entry, looked up: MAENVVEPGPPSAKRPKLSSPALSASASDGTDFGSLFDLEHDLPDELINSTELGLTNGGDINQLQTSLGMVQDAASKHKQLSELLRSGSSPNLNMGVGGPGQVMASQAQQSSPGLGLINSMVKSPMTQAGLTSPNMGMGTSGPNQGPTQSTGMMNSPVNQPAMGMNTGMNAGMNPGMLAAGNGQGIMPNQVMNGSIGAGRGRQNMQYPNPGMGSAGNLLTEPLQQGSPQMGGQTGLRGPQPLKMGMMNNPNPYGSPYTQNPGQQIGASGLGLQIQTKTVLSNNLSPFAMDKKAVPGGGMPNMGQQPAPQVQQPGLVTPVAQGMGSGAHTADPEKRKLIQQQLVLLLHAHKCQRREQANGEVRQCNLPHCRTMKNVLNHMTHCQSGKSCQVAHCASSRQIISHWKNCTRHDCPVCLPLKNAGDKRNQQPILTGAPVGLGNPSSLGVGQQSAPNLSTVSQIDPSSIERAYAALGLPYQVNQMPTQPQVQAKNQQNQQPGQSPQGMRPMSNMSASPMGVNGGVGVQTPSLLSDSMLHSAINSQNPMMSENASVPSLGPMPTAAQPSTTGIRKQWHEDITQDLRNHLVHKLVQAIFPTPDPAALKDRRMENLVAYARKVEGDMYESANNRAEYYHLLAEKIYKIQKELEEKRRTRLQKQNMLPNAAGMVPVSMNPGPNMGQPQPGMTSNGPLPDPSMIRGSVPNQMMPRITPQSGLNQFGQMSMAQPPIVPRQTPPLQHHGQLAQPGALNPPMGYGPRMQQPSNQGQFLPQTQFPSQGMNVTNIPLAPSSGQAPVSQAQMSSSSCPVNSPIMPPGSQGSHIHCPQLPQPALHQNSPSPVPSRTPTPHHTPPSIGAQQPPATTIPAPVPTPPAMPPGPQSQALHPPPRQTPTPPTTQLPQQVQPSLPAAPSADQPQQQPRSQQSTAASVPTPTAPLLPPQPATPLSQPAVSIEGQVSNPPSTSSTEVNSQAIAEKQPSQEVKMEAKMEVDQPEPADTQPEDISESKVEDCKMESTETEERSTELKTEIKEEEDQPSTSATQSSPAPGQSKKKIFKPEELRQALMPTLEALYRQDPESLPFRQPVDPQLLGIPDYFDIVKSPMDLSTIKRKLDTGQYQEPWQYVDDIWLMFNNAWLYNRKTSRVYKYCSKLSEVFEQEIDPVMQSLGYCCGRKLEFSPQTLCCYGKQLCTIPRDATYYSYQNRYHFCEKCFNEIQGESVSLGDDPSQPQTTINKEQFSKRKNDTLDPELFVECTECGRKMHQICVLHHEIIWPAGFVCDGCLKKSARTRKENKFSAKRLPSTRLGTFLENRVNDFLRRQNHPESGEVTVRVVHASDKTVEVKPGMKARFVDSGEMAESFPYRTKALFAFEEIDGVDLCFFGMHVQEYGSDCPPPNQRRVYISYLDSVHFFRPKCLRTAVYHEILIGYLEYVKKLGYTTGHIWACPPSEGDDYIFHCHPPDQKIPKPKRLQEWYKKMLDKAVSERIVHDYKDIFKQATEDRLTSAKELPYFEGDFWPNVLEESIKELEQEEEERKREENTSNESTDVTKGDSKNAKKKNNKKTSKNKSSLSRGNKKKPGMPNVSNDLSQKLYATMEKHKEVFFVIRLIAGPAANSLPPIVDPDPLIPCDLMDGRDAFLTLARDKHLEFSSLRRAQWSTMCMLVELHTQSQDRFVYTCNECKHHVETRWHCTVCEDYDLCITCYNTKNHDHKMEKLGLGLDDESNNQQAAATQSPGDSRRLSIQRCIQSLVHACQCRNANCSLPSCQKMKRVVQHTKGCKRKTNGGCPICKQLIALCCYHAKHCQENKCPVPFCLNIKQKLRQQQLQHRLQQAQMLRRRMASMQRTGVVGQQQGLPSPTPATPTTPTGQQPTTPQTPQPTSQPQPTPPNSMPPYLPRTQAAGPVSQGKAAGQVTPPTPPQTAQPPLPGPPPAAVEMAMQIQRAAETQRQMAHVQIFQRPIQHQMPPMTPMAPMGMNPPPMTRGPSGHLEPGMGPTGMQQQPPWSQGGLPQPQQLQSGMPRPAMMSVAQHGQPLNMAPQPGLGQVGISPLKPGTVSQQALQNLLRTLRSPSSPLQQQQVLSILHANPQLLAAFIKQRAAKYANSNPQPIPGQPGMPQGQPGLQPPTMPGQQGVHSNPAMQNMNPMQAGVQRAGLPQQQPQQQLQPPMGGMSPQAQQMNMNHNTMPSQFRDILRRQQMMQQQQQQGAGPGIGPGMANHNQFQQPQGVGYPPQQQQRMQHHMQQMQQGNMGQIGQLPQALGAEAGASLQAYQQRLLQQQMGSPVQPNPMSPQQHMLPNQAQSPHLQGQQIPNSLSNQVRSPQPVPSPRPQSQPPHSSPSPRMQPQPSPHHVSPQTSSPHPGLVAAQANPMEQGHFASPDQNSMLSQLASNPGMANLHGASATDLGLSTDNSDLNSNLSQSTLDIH
UniProt P55884, whole entry, looked up: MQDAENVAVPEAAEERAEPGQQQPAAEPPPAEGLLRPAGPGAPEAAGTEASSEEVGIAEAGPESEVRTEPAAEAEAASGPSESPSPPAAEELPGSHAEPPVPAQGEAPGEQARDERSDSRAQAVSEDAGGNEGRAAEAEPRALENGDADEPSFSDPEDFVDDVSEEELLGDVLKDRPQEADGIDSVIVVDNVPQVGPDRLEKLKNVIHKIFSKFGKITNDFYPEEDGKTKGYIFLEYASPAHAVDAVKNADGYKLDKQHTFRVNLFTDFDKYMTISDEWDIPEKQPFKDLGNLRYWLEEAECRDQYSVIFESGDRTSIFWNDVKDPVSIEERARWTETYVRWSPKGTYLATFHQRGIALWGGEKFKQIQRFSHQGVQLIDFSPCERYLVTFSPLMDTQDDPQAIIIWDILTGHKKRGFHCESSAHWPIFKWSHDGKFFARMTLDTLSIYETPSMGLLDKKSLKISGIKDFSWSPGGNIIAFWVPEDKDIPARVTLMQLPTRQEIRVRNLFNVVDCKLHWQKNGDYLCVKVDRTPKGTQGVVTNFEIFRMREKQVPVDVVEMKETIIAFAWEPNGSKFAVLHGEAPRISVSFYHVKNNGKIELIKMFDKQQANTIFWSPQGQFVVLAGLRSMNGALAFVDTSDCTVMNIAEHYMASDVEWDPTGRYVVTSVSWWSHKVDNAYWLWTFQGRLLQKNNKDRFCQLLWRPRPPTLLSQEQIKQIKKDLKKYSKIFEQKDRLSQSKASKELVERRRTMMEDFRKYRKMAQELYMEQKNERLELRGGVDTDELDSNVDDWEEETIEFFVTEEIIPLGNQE

Legend:
Test in all cases: log2 fold change, soluble protein after heating vs DMSO (PISA); higher = thermal stabilisation; K562 cells, 10 uM, 30 min; active = over 0.2 and 3.5 SD of the protein, either way, in both replicates (recomputed)
[1] = compound: CC[C@@H]1C(=O)N(C)c2cnc(Nc3ccc(C(=O)NC4CCN(C)CC4)cc3OC)nc2N1C1CCCC1
Procedure, shortened: (§1)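 K562 cells at 2×10^6 cells/mL were treated with 10 μM compound for 30 min. Aliquots were heated for 3 min across 48°C-58°C, pooled, and extracted in PBS with 0.5% NP-40 at 4°C; soluble protein was the supernatant after 21,000xg for 90 min. Soluble protein was quantified by TMTpro 16plex LC-MS/MS with channel sums equalised, and reported as log2 fold change in thermal stability against DMSO controls, with values from duplicates.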

[2] = compound: CC[C@@H]1C(=O)N(C)c2cnc(Nc3ccc(C(=O)N[C@H]4CC[C@H](N5CCN(CC6CC6)CC5)CC4)cc3OC)nc2N1C(C)C [volasertib]
Procedure, shortened: as §1

[3] = compound: CC[C@H](C)N1C=C(C2=C(C=C(C=C21)C3=CN=C(C=C3)N4CCNCC4)C(=O)NCC5=C(C=C(NC5=O)C)C)C
Procedure, shortened: as §1

[4] = compound: CC[C@H](C)[C@@H](C(=O)N[C@@H]([C@@H](C)O)C(=O)N[C@@H](CC(C)C)C(=O)[C@]1(CO1)C)NC(=O)[C@H]([C@@H](C)CC)N(C)C(=O)C [epoxomicin]
Procedure, shortened: as §1

[5] = compound: CCn1c(C(=O)N(C2CC2)C2CC2)cc2c3c(ncn3C)c(Nc3cc(C)n(C)n3)nc21
Procedure, shortened: as §1

[6] = compound: CCn1cc(-c2ccnc3[nH]c(-c4cccc(CN(C)C)c4)cc23)c(-c2ccc(NC(=O)N(C)C)cc2)n1
Procedure, shortened: as §1

[7] = compound: CN(C)CC(=O)Nc1ccc2[nH]c(=O)c3ccccc3c2c1
Procedure, shortened: as §1

[8] = compound: CN(CCOC1=CC=C(C=C1)C[C@H]2C(=O)NC(=O)S2)C3=CC=CC=N3 (racemic) [rosiglitazone]
Procedure, shortened: as §1

[9] = compound: CN1C2=C(C3=C1C(=O)N(N=C3)CC4=CC(=CC=C4)N)SC(=C2)S(=O)C
Procedure, shortened: as §1

[10] = compound: CN1CCC(CNc2ccc3ncc(-c4cccc(OC(F)(F)F)c4)n3n2)CC1
Procedure, shortened: as §1

Measured: log2 fold change

EMG1 (UniProt Q92979)
inactive: [1] 0.087 | [2] 0.082 | [3] -0.024 | [4] -0.064 | [5] 0.031 | [6] 0.067 | [7] -0.07 | [8] -0.081 | [9] 0.044 | [10] 0.113

EIF4H (UniProt Q15056)
inactive: [1] -0.089 | [2] -0.161 | [3] -0.009 | [4] 0.006 | [5] -0.012 | [6] 0.03 | [7] -0.06 | [8] 0.016 | [9] -0.038 | [10] -0.034

EIF2AK4 (UniProt Q9P2K8)
inactive: [1] 0.099 | [2] -0.157 | [3] 0.03 | [4] -0.049 | [5] 0.028 | [6] -0.038 | [7] 0.138 | [8] 0.051 | [9] 0.109 | [10] -0.154

EIF3L (UniProt Q9Y262)
inactive: [1] -0.013 | [2] -0.057 | [3] -0.008 | [4] 0.051 | [5] 0.03 | [6] -0.046 | [7] -0.003 | [8] 0.044 | [9] -0.05 | [10] -0.057

EIF2B3 (UniProt Q9NR50)
inactive: [1] -0.03 | [2] -0.109 | [3] 0.014 | [4] 0.024 | [5] -0.021 | [6] 0.04 | [7] -0.014 | [8] 0.027 | [9] 0.006 | [10] 0.027

EIF4G2 (UniProt P78344)
inactive: [1] 0.334 | [2] -0.182 | [3] 0.143 | [4] -0.224 | [5] -0.146 | [6] 0.101 | [7] 0.04 | [8] -0.005 | [9] 0.348 | [10] -0.039

EIF2B4 isoform 2 (UniProt Q9UI10)
inactive: [1] 0.013 | [2] -0.061 | [3] 0.018 | [4] -0.005 | [5] -0.018 | [6] 0.002 | [7] 0.01 | [8] 0.011 | [9] -0.019 | [10] 0.148

EMC6 (UniProt Q9BV81)
inactive: [1] 0.107 | [2] 0.017 | [3] 0.007 | [4] 0.092 | [5] -0.041 | [6] -0.055 | [7] 0.006 | [8] -0.004 | [9] -0.089 | [10] 0.058

Five successive records from above, quoted:
EIF4H (UniProt Q15056)
inactive: [1] -0.089 | [2] -0.161 | [3] -0.009 | [4] 0.006 | [5] -0.012 | [6] 0.03 | [7] -0.06 | [8] 0.016 | [9] -0.038 | [10] -0.034

EIF2AK4 (UniProt Q9P2K8)
inactive: [1] 0.099 | [2] -0.157 | [3] 0.03 | [4] -0.049 | [5] 0.028 | [6] -0.038 | [7] 0.138 | [8] 0.051 | [9] 0.109 | [10] -0.154

EIF3L (UniProt Q9Y262)
inactive: [1] -0.013 | [2] -0.057 | [3] -0.008 | [4] 0.051 | [5] 0.03 | [6] -0.046 | [7] -0.003 | [8] 0.044 | [9] -0.05 | [10] -0.057

EIF2B3 (UniProt Q9NR50)
inactive: [1] -0.03 | [2] -0.109 | [3] 0.014 | [4] 0.024 | [5] -0.021 | [6] 0.04 | [7] -0.014 | [8] 0.027 | [9] 0.006 | [10] 0.027

EIF4G2 (UniProt P78344)
inactive: [1] 0.334 | [2] -0.182 | [3] 0.143 | [4] -0.224 | [5] -0.146 | [6] 0.101 | [7] 0.04 | [8] -0.005 | [9] 0.348 | [10] -0.039

(listing goes on)

ELP6 (UniProt Q0PNE2)
inactive: [1] 0.042 | [2] 0.009 | [3] -0.026 | [4] -0.018 | [5] 0.013 | [6] -0.002 | [7] -0.003 | [8] 0.017 | [9] -0.077 | [10] 0.021

EOGT (UniProt Q5NDL2)
inactive: [1] -0.004 | [2] 0.013 | [3] -0.037 | [4] 0.05 | [6] 0.001 | [7] 0 | [9] 0.021 | [10] 0.062

EMC8 (UniProt O43402)
inactive: [1] -0.027 | [2] 0.039 | [3] 0.01 | [4] 0.05 | [5] -0.004 | [6] 0.006 | [7] -0.012 | [8] 0.021 | [9] -0.061 | [10] -0.012

ENY2 (UniProt Q9NPA8)
inactive: [1] 0.064 | [2] 0.002 | [3] 0.013 | [4] 0.045 | [5] 0.048 | [6] 0.016 | [7] -0.061 | [8] 0.015 | [9] -0.081 | [10] 0.038

ENTPD6 (UniProt O75354)
inactive: [1] 0.002 | [2] -0.176 | [3] 0.009 | [4] 0.055 | [5] 0.02 | [6] 0.126 | [8] 0.057 | [9] 0.003 | [10] -0.055

EIF3D (UniProt O15371)
inactive: [1] -0.01 | [2] -0.33 | [3] 0.155 | [4] 0.044 | [5] -0.099 | [6] 0.08 | [7] 0.052 | [8] 0.083 | [9] 0.241 | [10] -0.121

EFCAB14 (UniProt O75071)
inactive: [1] -0.033 | [2] -0.089 | [3] -0.078 | [4] 0.068 | [6] 0.06 | [7] -0.018 | [9] 0.028 | [10] -0.178

EIF3C (UniProt Q99613)
inactive: [1] -0.023 | [2] -0.404 | [3] 0.103 | [4] 0.065 | [5] -0.078 | [6] 0.019 | [7] 0.045 | [8] 0.066 | [9] 0.152 | [10] -0.06

EMC1 (UniProt Q8N766)
inactive: [1] -0.001 | [2] -0.004 | [3] 0.001 | [4] 0.037 | [5] -0.017 | [6] 0.007 | [7] -0.024 | [8] 0 | [9] -0.011 | [10] 0.041

EIF3J (UniProt O75822)
inactive: [1] -0.061 | [2] 0.005 | [3] 0.011 | [4] 0.055 | [6] 0.001 | [7] -0.008 | [9] -0.061 | [10] 0.226

EPB41 (UniProt P11171)
inactive: [1] -0.043 | [2] -0.082 | [3] 0.035 | [4] 0.005 | [5] 0.031 | [6] 0 | [7] -0.033 | [8] 0.017 | [9] -0.022 | [10] -0.074

EGLN1 (UniProt Q9GZT9)
inactive: [1] 0.117 | [2] -0.001 | [3] 0.048 | [4] 0.078 | [6] -0.004 | [7] 0.007 | [9] -0.006 | [10] -0.052

EFHD2 (UniProt Q96C19)
inactive: [1] -0.202 | [2] -0.176 | [3] 0.058 | [4] 0.057 | [5] -0.028 | [6] -0.014 | [7] 0.042 | [8] 0.067 | [9] -0.035 | [10] -0.031

EMP3 (UniProt P54852)
inactive: [1] 0.25 | [2] 0.098 | [3] -0.122 | [4] -0.205 | [5] 0.045 | [7] 0.126 | [8] 0.028 | [9] -0.084

EP300 (UniProt Q09472)
inactive: [1] 0.045 | [2] 0.016 | [3] 0.043 | [4] -0.006 | [5] -0.028 | [6] -0.104 | [7] -0.003 | [8] -0.007 | [9] -0.015 | [10] 0.068

EFTUD2 (UniProt Q15029)
inactive: [1] 0.037 | [2] 0.047 | [3] -0.058 | [4] -0.039 | [5] 0.028 | [6] 0.032 | [7] -0.016 | [8] -0.02 | [9] -0.033 | [10] 0.125

EIF3B isoform 2 (UniProt P55884)
inactive: [1] -0.016 | [2] -0.29 | [3] 0.072 | [4] -0.034 | [5] -0.061 | [6] 0.053 | [7] 0.015 | [8] 0.036 | [9] 0.15 | [10] -0.009

EML3 (UniProt Q32P44)
inactive: [1] 0.195 | [2] -0.082 | [3] 0.224 | [4] -0.076 | [5] -0.059 | [6] -0.081 | [8] 0.105 | [9] 0.359 | [10] -0.032

EFNB1 (UniProt P98172)
inactive: [1] -0.036 | [2] 0.051 | [3] -0.144 | [4] 0.012 | [5] -0.084 | [6] -0.053 | [7] 0.02 | [8] -0.045 | [9] 0.428 | [10] 0.153
